{"source": "PubChem BioAssay AID504648", "about": "(National Center for Advancing Translational Sciences (NCATS), 2011)", "note": "Screen size: about 390,000 compounds; about 610 (0.16%) were called active. The shares of active, inactive and inconclusive entries below differ from those in the screen. The call rests on the fitted dose curve; in most records, active means well fitted inhibition curve with a large enough effect; inconclusive means small, poorly fitted or top-dose-only effect, or effect the other way, or another doubt; inactive means no such curve, though single readings can be large or run the other way. Potencies beside an inconclusive call are fits to weak or partial responses and may not hold up. On the % scale 0 is the no-effect control and ±100 the full control effect; potency means the concentration at half of the fitted maximal effect.", "data": [{"assay": "Nrf2 qHTS screen for inhibitors: counterscreen for cytotoxicity", "conditions": "A549 ARE-Fluc cells, CellTiter-Fluor viability, 18-24 h; activity change, negative = cytotoxicity: at 46 µM (top of the series)", "in_short": "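Cytotoxicity counterscreen: CellTiter-Fluor fluorescence was measured in A549 ARE_Fluc cells after 18-24 h of compound exposure in a concentration series. The subsequent BugLite luminescent read reports ARE-luciferase activity.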", "values": [{"smiles": "COc1ccccc1N=Nc1ccc(O)c2ncccc12", "Potency": "inactive"}, {"smiles": "CCC1CCCCN1C(=O)c1ccc([N+](=O)[O-])o1", "note": "(stereo not given)", "Potency": "inactive"}, {"smiles": "CC(C)(C)NC(=O)C(c1ccc(-c2ccccc2)cc1)N(C[C@H]1CC[C@@H]([C@@H]2CC[C@H](CO)O2)O1)C(=O)c1ccc(-c2ccccc2)cc1", "note": "(stereo not given in full)", "Potency": "inconclusive: 18.4 µM [falling, single point]"}, {"smiles": "CC(=O)Nc1nc(NC(=O)/C=C/c2ccccc2)n(-c2ccccc2)n1", "Potency": "inconclusive: 23.1 µM [falling, partial curve, poor fit]"}, {"smiles": "CCCCCCNC(=O)CC(c1ccccc1)c1cc(Br)ccc1O", "note": "(stereo not given)", "Potency": "inconclusive: 29.1 µM [falling, single point]"}, {"smiles": "Cc1ccc(-c2nc(CS(=O)(=O)CC(=O)N3CCN(c4ccccc4)CC3)c(C)o2)cc1", "Potency": "inactive"}, {"smiles": "CCCOc1ccc(CN2C(=O)C(=O)c3cccc(C)c32)cc1", "Potency": "inactive"}, {"smiles": "Cc1ccc(S(=O)(=O)NCCN=Cc2ccc(N(C)C)cc2)cc1", "Potency": "inconclusive: 29.1 µM [falling, single point]"}, {"smiles": "CC1CN(C(=O)N2CCC(C(=O)NCc3ccco3)CC2)c2ccccc2O1", "note": "(stereo not given)", "Potency": "inconclusive: 29.1 µM [falling, partial curve, poor fit]"}, {"smiles": "N#Cc1cc(C(=O)c2ccccc2O)cn(-c2nccs2)c1=O", "Potency": "inactive"}, {"smiles": "Cc1ccc(C(C(=O)NCC2CCCO2)N(Cc2ccccc2)C(=O)c2ccc(-c3ccccc3)[nH]2)o1", "note": "(stereo not given)", "Potency": "inconclusive: 29.1 µM [falling, partial curve, poor fit]"}, {"smiles": "COc1ccccc1C1C(C(=O)Nc2ccccc2)=C(C)Nc2nc(-c3ccccc3)nn21", "note": "(stereo not given)", "Potency": "inactive"}, {"smiles": "O=C(CCSc1nc(-c2ccco2)cc(C(F)(F)F)n1)Nc1ccc2c(c1)OCO2", "Potency": "inactive"}, {"smiles": "O=C1CN(C(=O)CNC(=O)c2ccc(Cl)cc2Cl)CCN1", "Potency": "inconclusive: 5.17 µM [falling, partial curve, poor fit]"}, {"smiles": "N#CC1=C(N)Oc2c(ccc3ccccc23)C1c1cccs1", "note": "(stereo not given)", "Potency": "inconclusive: 10 µM [falling, partial curve, poor fit]"}, {"smiles": "O=C(Nc1ccc(F)c(Cl)c1)Nc1csc2ccccc12", "Potency": "inconclusive: 23.1 µM [falling, single point]"}, {"smiles": "COc1cc2ccc(=O)oc2c(O)c1OCC=C(C)C", "Potency": "inconclusive: 23.1 µM [activator, partial curve]"}, {"smiles": "COc1ccccc1-c1nn(-c2ccccc2)cc1C(=O)N1CCc2ccccc2C1", "Potency": "inconclusive: 29.1 µM [falling, single point]"}, {"smiles": "CC(C)(C)c1ccc(Cn2cnc(-c3ccc([N+](=O)[O-])cc3)c2)cc1", "Potency": "inconclusive: 32.6 µM [falling, partial curve, poor fit]"}, {"smiles": "S=C(NCCc1ccccc1)N/N=C/c1cccc(Cl)c1Cl", "Potency": "inconclusive: 16.4 µM [activator, partial curve, poor fit]"}, {"smiles": "COc1cccc(Nc2ccc(C(=O)O)cc2[N+](=O)[O-])c1", "Potency": "inconclusive: 20.6 µM [falling, single point]"}, {"smiles": "COc1ccc(C)cc1NC(=O)CNC(c1ccccc1)c1ccc(C)cc1", "note": "(stereo not given)", "Potency": "inactive"}, {"smiles": "Cc1ccc(C(=O)c2oc3ccccc3c2NC(=O)C(C)Oc2ccccc2Cl)cc1", "note": "(stereo not given)", "Potency": "inactive"}, {"smiles": "Cc1ccccc1NC(=O)/C(C#N)=C/c1ccc(-c2ccc(Cl)c(C(=O)O)c2)o1", "Potency": "inconclusive: 13 µM [falling, partial curve, poor fit]"}, {"smiles": "Cc1cccc(NC(=O)CN2C(=O)NC(C)(c3ccc4ccccc4c3)C2=O)n1", "note": "(stereo not given)", "Potency": "inconclusive: 2.06 µM [falling, partial curve, poor fit]"}, {"smiles": "Cc1cc(/C=C2/C(=O)NN(c3ccccc3)C2=O)c(C)n1-c1ccc(O)cc1", "Potency": "inconclusive: 23.1 µM [falling, partial curve, poor fit]"}, {"smiles": "CCCn1cc(S(=O)(=O)c2ccc(CC)cc2)c(=O)c2cc(F)c(N3CCN(C)CC3)cc21", "Potency": "inconclusive: 5.8 µM [falling, partial curve, poor fit]"}, {"smiles": "CC(/C=C1\\SC(=S)N(NC(=O)c2ccc(C)cc2)C1=O)=C\\c1ccccc1", "Potency": "inconclusive: 20.6 µM [falling, single point]"}, {"smiles": "CCn1c2ccccc2c2nnc(SCC(=O)c3ccccc3)nc21", "Potency": "inconclusive: 16.4 µM [falling, single point]"}, {"smiles": "N#C/C(=C\\C1=C(N2CCOCC2)C(=C/c2cccc([N+](=O)[O-])c2)/CC1)C(=O)Nc1ccccc1F", "Potency": "inconclusive: 2.59 µM [falling, full curve, poor fit]"}, {"smiles": "CCc1cccc2c(C(=O)CN3C(=O)NC(C)(c4cccc5ccccc45)C3=O)c[nH]c12", "note": "(stereo not given)", "Potency": "inconclusive: 32.6 µM [falling, single point]"}, {"smiles": "O=S(=O)(NCC(c1ccco1)N1CCc2ccccc2C1)c1ccc(Br)cc1", "note": "(stereo not given)", "Potency": "inconclusive: 18.4 µM [falling, partial curve, poor fit]"}, {"smiles": "COc1ccc(Nc2c3c(nc4ccc(NC(=O)c5cc(Cl)ccc5OC)cc24)CCCC3)cc1OC", "Potency": "inconclusive: 20.6 µM [falling, single point]"}, {"smiles": "CN1CCN(S(=O)(=O)c2cccc(S(=O)(=O)c3ccc(Cl)c(Cl)c3)c2)CC1", "Potency": "inconclusive: 16.4 µM [activator, partial curve, poor fit]"}, {"smiles": "COc1ccc(NC(=O)CCCn2c(=O)c3sccc3n(Cc3ccccc3C)c2=O)cc1", "Potency": "inactive"}, {"smiles": "CCCCCN(C(=O)CCC(=O)OCc1ccc(C(C)C)cc1)c1c(N)n(CCCC)c(=O)[nH]c1=O", "Potency": "inconclusive: 32.6 µM [falling, partial curve, poor fit]"}, {"smiles": "CC[n+]1c(C=C2C=C(C)OC(C)=C2)sc2ccccc21", "Potency": "active: 2.91 µM"}, {"smiles": "Cc1cc(=O)oc2cc(Oc3ncccn3)ccc12", "Potency": "inactive"}, {"smiles": "CC(C)Cn1c(C(C)C)nc([N+](=O)[O-])c1S(=O)(=O)c1ccc(F)cc1", "Potency": "inconclusive: 10.3 µM [falling, partial curve, poor fit]"}, {"smiles": "O=C(c1cccc(S(=O)(=O)N2CCc3ccccc3C2)c1)N1CCN(c2ccc(O)cc2)CC1", "Potency": "inactive"}, {"smiles": "Cc1cc(C)c2c(=O)n(CC(=O)Nc3cccc(Cl)c3C)sc2n1", "Potency": "inactive"}, {"smiles": "O=C(NCC1CCCCN1)c1cc(OCC(F)(F)F)ccc1OCC(F)(F)F", "note": "(stereo not given)", "activity change, negative = cytotoxicity": "inconclusive: -29.2% [activator]"}, {"smiles": "CNc1ccccc1C(=O)OC(C)C(=O)Nc1ccc(S(=O)(=O)N2CCCC2)cc1", "note": "(stereo not given)", "Potency": "inconclusive: 29.1 µM [falling, partial curve, poor fit]"}, {"smiles": "N#Cc1c(NC(=O)CSc2nc3c(c(C(F)(F)F)n2)CCc2ccccc2-3)sc2c1CCCC2", "Potency": "inactive"}, {"smiles": "CCc1ccc(S(=O)(=O)c2nnn3c2nc(NC(C)C)c2cc(Cl)ccc23)cc1", "Potency": "inactive"}, {"smiles": "Cc1cccc(N(CC(=O)N(C)Cc2ccccc2)S(=O)(=O)c2ccccc2)c1C", "Potency": "inactive"}, {"smiles": "Nc1c(S(=O)(=O)c2cc(Cl)ccc2Cl)c2nc3ccccc3nc2n1CCN1CCOCC1", "Potency": "inconclusive: 18.4 µM [falling, partial curve, poor fit]"}, {"smiles": "O=C(O)c1ccccc1Nc1ccc([N+](=O)[O-])cc1", "Potency": "inconclusive: 23.1 µM [falling, partial curve, poor fit]"}, {"smiles": "N#C/C(=N\\Nc1ccccc1)C(=N)N1CCCCC1", "Potency": "inconclusive: 23.1 µM [falling, partial curve, poor fit]"}, {"smiles": "O=S(=O)(c1ccc(Br)cc1)N1CCOCC1", "Potency": "inactive"}, {"smiles": "O=[N+]([O-])c1ccc(N/N=C/c2sc(N3CCOCC3)nc2-c2ccccc2)c(S(=O)(=O)Nc2ccc(Cl)cc2)c1", "Potency": "active: 2.59 µM"}, {"smiles": "COc1cc(/C=C2\\SC(=Nc3ccc(Cl)c(C(=O)O)c3)NC2=O)c(Br)c(Br)c1O", "Potency": "inconclusive: 20.6 µM [falling, partial curve, poor fit]"}, {"smiles": "Cc1ccc2nc(/C(C#N)=C\\c3ccc([N+](=O)[O-])o3)[nH]c2c1", "Potency": "inconclusive: 2.91 µM [activator, partial curve]"}, {"smiles": "O=C(NCc1cccnc1)c1cccc2c1C(=O)N(Cc1cccnc1)C2", "Potency": "inconclusive: 2.91 µM [activator, full curve, poor fit]"}, {"smiles": "CC(=O)Nc1ccc(Nc2ccc(N3C(=O)CCCC3=O)cc2[N+](=O)[O-])cc1", "Potency": "inconclusive: 20.6 µM [falling, partial curve, poor fit]"}, {"smiles": "COc1ccc(-c2cn3c(C)c(C(=O)NCCN4CCOCC4)sc3n2)cc1", "Potency": "inactive"}, {"smiles": "CCNC(=O)/C(C#N)=C/c1c(N2CCN(c3cccc(Cl)c3)CC2)nc2c(C)cccn2c1=O", "Potency": "inconclusive: 13 µM [falling, partial curve]"}, {"smiles": "Oc1ccc2ccccc2c1C=NNc1ccccn1", "Potency": "inconclusive: 18.4 µM [falling, partial curve, poor fit]"}, {"smiles": "CCN(CC)c1nc(=S)nc(NC(C)(C)C)[nH]1", "Potency": "inconclusive: 16.4 µM [activator, partial curve, poor fit]"}, {"smiles": "Cc1ccc(S(=O)(=O)Nc2cccc3ccc(C)nc23)cc1", "Potency": "inactive"}, {"smiles": "CCn1c(-c2ccc(C(C)(C)C)cc2)n[nH]c1=S", "Potency": "inconclusive: 32.6 µM [falling, partial curve, poor fit]"}, {"smiles": "COC(=O)C1C(=O)c2c([nH]c(C(=O)OCCOC(C)C)c2C)CC1C", "note": "(stereo not given)", "Potency": "inactive"}, {"smiles": "Oc1c(C(c2ccc(Cl)cc2)N2CCCC2)cc(Cl)c2cccnc12", "note": "(stereo not given)", "Potency": "inconclusive: 29.1 µM [falling, partial curve, poor fit]"}, {"smiles": "COc1cc(/C=C2\\C(=N)N3N=CSC3=NC2=O)cc(Br)c1OC(=O)c1ccco1", "Potency": "inconclusive: 18.4 µM [activator, single point]"}, {"smiles": "N#CCc1ccccc1C(=O)OCC(=O)N(Cc1ccccc1)Cc1ccccc1", "Potency": "inactive"}]}]}
